No signal at the amounts used counts as a negative. At least one verdict rests on a figure or table, not on a statement of the authors. For part of these data: Construct, isoform or probe ends are uncertain for at least one entry.
What was measured:
Assay in all cases: electrochemical aptasensor
[1] = system: Lys; conditions: 100x the VEGF165 concentration, negligible effect on signal; 5'-NH2, coupled by amide bond to PANI/CNT carboxyl groups (DMT-MM); PBS rinsing, ferri/ferrocyanide redox probe; aptamer immobilized on PANI/CNT screen-printed carbon electrode; commercial protein
[2] = molecular target: HSA (human serum albumin) (UniProt P02768); conditions: 100x the VEGF165 concentration (100 pg/mL and 10 ng/mL), negligible effect on signal; 5'-NH2, coupled by amide bond to PANI/CNT carboxyl groups (DMT-MM); PBS rinsing, ferri/ferrocyanide redox probe; aptamer immobilized on PANI/CNT screen-printed carbon electrode; commercial protein
[3] = system: Lip; conditions: 100x the VEGF165 concentration, negligible effect on signal; 5'-NH2, coupled by amide bond to PANI/CNT carboxyl groups (DMT-MM); PBS rinsing, ferri/ferrocyanide redox probe; aptamer immobilized on PANI/CNT screen-printed carbon electrode; commercial protein

Measured: binding result

AUGCAGUUUGAGAAGUCGCGCAU [anti-VEGF165 RNA aptamer]
no binding: all assays above

From article PMC8069203
